According to publication PMC9247573 (Frontiers in Microbiology, 2022):
Results are given in words; binding and its absence hold for the method and conditions named. Some results given as binding are weak or reduced against the parent protein; the word gives no strength.

Biological target: Escherichia coli pseudouridine kinase PsuK (E. coli BL21 (DE3)) (UniProt P30235)
Assay: crystal structure; space group P6_(3)22, one molecule in the asymmetric unit; the homodimer is formed with the adjacent asymmetric unit (crystallographic symmetry); apo, with pseudouridine and with N1-methyl-pseudouridine; both purified

B1: Escherichia coli pseudouridine kinase PsuK (enzyme, E. coli BL21 (DE3), UniProt P30235 1-313, looked up)
chain: MREKDYVVIIGSANIDVAGYSHESLNYADSNPGKIKFTPGGVGRNIAQNLALLGNKAWLLSAVGSDFYGQSLLTQTNQSGVYVDKCLIVPGENTSSYLSLLDNTGEMLVAINDMNISNAITAEYLAQHGEFIQRAKVIVADCNISEEALAWILDNAANVPVFVDPVSAWKCVKVRDRLNQIHTLKPNRLEAETLSGIALSGREDVAKVAAWFHQHGLNRLVLSMGGDGVYYSDISGESGWSAPIKTNVINVTGAGDAMMAGLASCWVDGMPFAESVRFAQGCSSMALSCEYTNNPDLSIANVISLVENAECLN
notes: E. coli pseudouridine kinase PsuK (YeiC), amplified from the E. coli BL21 (DE3) genome, Uniprot ID A0A140N873, aa 1-313 (313 residues, calculated 33.6 kDa); modelled from Arg2 to Asn308 in the apo structure; Cloned by BamHI and XhoI into a modified pET-28a with an Ulp1 cleavage site; also called EcPsuK; YeiC; source: E. coli BL21 (DE3), purified (Ni-NTA, Ulp1 cleavage, second Ni-NTA, Superdex …)
**Q.** B1 was tested. Which binding did it give?
**A.** Its binding is “binds”.
